Test results as given in PubChem BioAssay AID1347075 (National Center for Advancing Translational Sciences (NCATS), 2019).
In all, about 400,000 compounds went through this assay and about 5,500 (1.4%) were called active. The inconclusive results got no clear call from the source; some entries with a clear call stand among them for comparison. Calls come from the whole dose curve; as a rule, active = well fitted cell-killing curve with a large enough effect; inconclusive = small, poorly fitted or top-dose-only effect, or effect the other way; inactive = flat fitted curve, though single readings scatter. Potencies of inconclusive entries are doubtful fits and often do not repeat.

Experiment: qHTS assay for MDR1-selective chemotherapeutics: Primary screen using the parental adenocarcinoma cell KB-3-1; note: nearly all actives have a fitted effect of over 60% in size
Details: KB-3-1 viability, CellTiter-Glo ATP luminescence, 72 h; activity change, negative = cytotoxic: at 46.1 µM (top of the series)
How it was run: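 KB-3-1 cells, DMEM (no phenol red) + 10% FBS; compound by pin transfer, 72 h, 37 °C. Readout: CellTiter-Glo luminescence after 10 min. Data normalized, curve-fitted.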
% is set by controls: 0 for no effect and ±100 for the full control effect; potency is the fitted concentration of half-maximal effect.

SMILES	activity change, negative = cytotoxic	Potency
COc1cc(OC)c(-n2cc(-c3ccc(OC)c(OC)c3)[nH]c2=S)cc1Cl	inconclusive: 36.7%	
CC(=O)/C(C#N)=C1\NC(=O)C(Cc2ccccc2)S1 (stereo unspecified)		active: 14.6 µM
C=CCNc1nc2ccccc2nc1NS(=O)(=O)c1ccc(Cl)cc1		inconclusive: 29.1 µM [cytotoxic, single point]
Cc1ccc(S(=O)(=O)N(Cc2ccccc2)c2ccccc2C(=O)NCc2cccnc2)cc1		inconclusive: 20.6 µM [rising, single point]
N#Cc1nnn2c1nc(N)c1c(F)cccc12		inconclusive: 23.1 µM [cytotoxic, partial curve, poor fit]
CCc1cc(C(=O)NC2CCCc3c2cnn3-c2ccc(F)cc2F)no1 (stereo unspecified)		active: 14.6 µM
CCCOc1ccccc1/C=C1\SC(N2CCCCC2)=NC1=O		active: 7.31 µM
CC1(C)NC(=O)N(CC(=O)Nc2ccc(-n3cnnn3)cc2)C1=O		inconclusive: 29.1 µM [rising, single point]
COc1ccc(-c2noc(-c3ccccc3F)n2)cc1		inconclusive: 11.6 µM [cytotoxic, single point]
Oc1ccccc1-c1cc(-c2ccc(Cl)cc2)n[nH]1		inconclusive: 23.1 µM [cytotoxic, partial curve, poor fit]
O=c1c2sc3ccccc3c2n(Cc2ccccc2)c(=O)n1CCc1ccccc1		inactive
O=C(CCNC(=O)c1ccco1)NCc1ccc(C(=O)O)cc1	inconclusive: 13.5%	
CN(NS(=O)(=O)c1ccccc1)c1nc2ccccc2nc1C(F)(F)F		inactive
COc1ccc(S(=O)(=O)N2CCC(C(=O)Nc3cc(C(F)(F)F)ccc3Cl)CC2)cc1		inconclusive: 5.8 µM [cytotoxic, full curve]
CCC(C)N1C(=O)/C(=C/c2c(NCCCOC(C)C)nc3c(C)cccn3c2=O)SC1=S (stereo unspecified)		inactive
Cc1cc(C(=O)CSc2nnnn2-c2ccc(O)cc2)c(C)n1Cc1ccc2c(c1)OCO2		inconclusive: 20.6 µM [cytotoxic, single point]
CSc1ccc(/C=N/NC(=O)c2ccc3nc[nH]c3c2)cc1		inconclusive: 29.1 µM [cytotoxic, single point]
C#CCOCCOCCOCCNc1nc(N2CCN(C(=O)CCCCCCCCCCNC(=O)Cn3cc(CCCCCN)nn3)CC2)nc(N2CCN(C(=O)CCCCCCCCCCNC(=O)[C@H]([C@@H](C)CC)n3cc(CCCCN=C(N)N)nn3)CC2)n1		inconclusive: 29.1 µM [cytotoxic, single point]
Cc1ccc(-c2nn(-c3ccccc3)cc2/C=C2\SC(=S)N(CC(=O)O)C2=O)cc1		inactive
CCN(CC)S(=O)(=O)c1cccc(C(=O)NC(C(=O)Nc2nnc(C3CC3)s2)C(C)C)c1 (stereo unspecified)		inconclusive: 8.2 µM [rising, partial curve, poor fit]
O=C(N/N=C\c1ccc(CNS(=O)(=O)c2ccc(Cl)cc2)o1)C(=O)Nc1ccc(Oc2ccccc2)cc1		inconclusive: 20.6 µM [cytotoxic, single point]

SMILES	activity change, negative = cytotoxic	Potency
CCCCn1c(=N)n(CC(O)COc2ccccc2)c2ccccc21 (stereo unspecified)		inconclusive: 20.6 µM [cytotoxic, single point]
COc1ccc(Nc2nc(NCC3CCCO3)nc(N)c2[N+](=O)[O-])cc1 (stereo unspecified)		inactive
CCCn1nc(NC(=O)c2ccccn2)c2cc3cc(C)ccc3nc21		inconclusive: 9.2 µM [rising, partial curve, poor fit]
Cc1cc(Br)c(OCc2ccc(C(=O)N/N=C/c3ccc[nH]3)cc2)c(Br)c1		active: 2.59 µM
COc1cccc2sc3ccc(C#CC4(N)CCCCC4)cc3c(=O)c12		inconclusive: 20.6 µM [cytotoxic, single point]
O=C(Nc1nc(-c2ccc(-c3ccccc3)cc2)cs1)C1=COCCO1		inconclusive: 20.6 µM [cytotoxic, single point]
CCN(CCCNC(=O)COc1cc(=O)n(C)c2ccccc12)c1cccc(C)c1		inconclusive: 29.1 µM [cytotoxic, single point]
CC(=O)Nc1ccc(NC(=O)CSc2nnc3ccc(-c4ccccn4)nn23)cc1		inactive
CN(C)CCCNC(=O)c1cccc(-c2ccc3nccn3c2)c1		inactive
C#CCN(C[C@@H]1[C@@H](OC(=O)NCc2ccco2)[C@@H](OC(=O)NCc2ccco2)Cn2c(=O)n(CCCCCC)c(=O)n21)S(=O)(=O)c1ccc(C)cc1		inconclusive: 29.1 µM [cytotoxic, single point]
COc1ccc2c(Sc3ccccc3)c(C(=O)NCc3ccc(OC(C)C)cc3)[nH]c2c1		inactive
O=C(c1ccc(S(=O)(=O)NCC2CCCO2)cc1)N1CCc2ccccc21 (stereo unspecified)		inconclusive: 29.1 µM [cytotoxic, single point]
Fc1ccc(CSc2ccc(-c3ccc4c(c3)OCO4)nn2)cc1		inconclusive: 29.1 µM [cytotoxic, single point]
COCC(C)N=C1SCCN1Cc1ccccc1 (stereo unspecified)		inactive
Cc1cccc(-c2cc3nc(C)c(C)c(NCCCn4ccnc4)n3n2)c1		inconclusive: 14.6 µM [cytotoxic, single point]
COC(=O)C1=C(C)N(Cc2ccccc2)C(=NCc2ccccc2)N[C@H]1c1ccccc1		inconclusive: 23.1 µM [cytotoxic, partial curve, poor fit]
Cc1ccc(S(=O)(=O)Nc2ccc(F)c(F)c2O)cc1		inconclusive: 23.1 µM [cytotoxic, single point]
Cc1cccc(-c2nnc3n(CCc4ccccc4)c(=O)c4ccccc4n23)c1		inconclusive: 9.2 µM [cytotoxic, partial curve]
O=C(CCN1N=C(c2ccccc2)CCC1=O)NCC1CCCO1 (stereo unspecified)		inactive
C[N+]1(CC(=O)c2c3ccccc3cc3ccccc23)CCOCC1		inactive
CCCCc1c(-c2cccc(OC)c2)ncn1CCc1ccccc1OC		inconclusive: 20.6 µM [cytotoxic, single point]
CCN1CCN(c2ccc(S(=O)(=O)N3CCCCC3)cc2NC(=O)C(C)Oc2ccc(F)cc2)CC1 (stereo unspecified)		inactive

Retrieved by compound from the list above, 3 records:
SMILES	activity change, negative = cytotoxic	Potency
COc1cc(OC)c(-n2cc(-c3ccc(OC)c(OC)c3)[nH]c2=S)cc1Cl	inconclusive: 36.7%	
O=C(CCNC(=O)c1ccco1)NCc1ccc(C(=O)O)cc1	inconclusive: 13.5%	
CC1(C)NC(=O)N(CC(=O)Nc2ccc(-n3cnnn3)cc2)C1=O		inconclusive: 29.1 µM [rising, single point]

(further entries)

SMILES	activity change, negative = cytotoxic	Potency
CC1=CC(C)(C)N(C(=O)CSc2nnc(-c3ccc(C)cc3)o2)c2ccc(C)cc21		inconclusive: 29.1 µM [cytotoxic, single point]
CCC(=O)Nc1ccc(NC(=O)CSc2nnnn2-c2cccnc2)cc1C		inconclusive: 11.6 µM [rising, partial curve, poor fit]
COc1cc(CNc2ncnc3c2ncn3[C@H]2CN(Cc3cccc4ccccc34)C[C@@H](CO)O2)cc(OC)c1OC		inconclusive: 29.1 µM [cytotoxic, single point]
C[N+]1(CC(=O)c2ccc3c(c2)CCCC3)CCOCC1		inconclusive: 10.3 µM [rising, partial curve, poor fit]
C=C(c1ccc(OC)cc1)c1ccc(OC)cc1		inconclusive: 29.1 µM [cytotoxic, single point]
Cc1ccc(-c2n[nH]c(=S)n2C)cc1		inconclusive: 25.9 µM [cytotoxic, partial curve, poor fit]
O=C1c2[nH]nc(-c3ccccc3)c2C(c2ccccc2)N1c1cccc(C(F)(F)F)c1 (stereo unspecified)		inconclusive: 29.1 µM [cytotoxic, single point]
O=c1[nH][nH]c(-c2ccccc2)c1-c1ccccc1		inconclusive: 8.2 µM [rising, partial curve, poor fit]
COc1ccc(Br)cc1CNC(=O)C1CCCN(S(=O)(=O)N2CC(C)CC(C)C2)C1 (stereo unspecified)		inconclusive: 16.4 µM [cytotoxic, single point]
Cc1ccc(S(=O)(=O)CCC(=O)Nc2nc(C(C)(C)C)cs2)cc1		inconclusive: 29.1 µM [cytotoxic, single point]
CCN(CC(=O)Nc1ccc(NC(C)=O)cc1)C(=O)c1cc(S(=O)(=O)N2CCCCCC2)ccc1OC		inactive
COc1ccc(C(=O)C=CNNC(=O)c2ccc(Cl)cc2)cc1		inconclusive: 20.6 µM [cytotoxic, partial curve]
CCNC(=O)CCCOc1ccc(Cl)cc1Cl		inactive
CCc1ccc(CNc2ccc(O)cc2)cc1	inconclusive: -0.781%	
CC1CCN(S(=O)(=O)c2ccc3c(c2)N(CC(=O)NCCc2ccc(Cl)cc2)C(=O)CO3)CC1		inconclusive: 29.1 µM [cytotoxic, single point]
CCOC(=O)c1c(C)[nH]c(C)c1S(=O)(=O)N1CCC(C(=O)N2CCN(c3cc(C)ccc3C)CC2)CC1		active: 16.4 µM
Cc1cc(NC(=O)C(C)SCC(=O)Nc2cc(C(F)(F)F)ccc2N2CCCCC2)no1 (stereo unspecified)		inconclusive: 29.1 µM [cytotoxic, single point]
O=C(c1cc2ccccc2o1)N1CCOCC1		inactive
Cc1cc(Cl)ccc1OC(C)C(=O)Nc1cnn(CCCC(=O)O)c1 (stereo unspecified)		inactive
O=[N+]([O-])c1ccc(Oc2ccc(S(=O)(=O)Nc3ccccc3)cc2)cc1		inconclusive: 14.6 µM [cytotoxic, partial curve]
COC1(OC)C=CC(=O)C=C1NC(=O)c1ccccc1OC(C)=O		inconclusive: 7.31 µM [cytotoxic, partial curve]
CCCC(=O)Nc1nnc(SCc2cc(=O)c3ccc(C)cc3[nH]2)s1		inconclusive: 2.31 µM [cytotoxic, full curve, poor fit]
